This is one part of the list.
What was measured:
Experiment in all cases: log2 fold change, soluble protein after heating vs DMSO (PISA); higher = thermal stabilisation; K562 lysate, 10 uM; active = over 0.2 and 3.5 SD of the protein, either way, in both replicates (recomputed)
lapatinib = compound: CS(=O)(=O)CCNCc1ccc(-c2ccc3ncnc(Nc4ccc(OCc5cccc(F)c5)c(Cl)c4)c3c2)o1 [lapatinib]
In short: (§1)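 Thermal stability, expressed as log-two fold change relative to solvent controls, is given from duplicates. Crude K562 extract in PBS pH 7.4 with 1 mM MgCl2, at 1 mg/mL protein, was treated with 10 μM compound for 30 min and heated in aliquots for 3 min across 48°C-58°C. After pooling, adjustment to 0.5% NP-40 at 4°C and centrifugation at 21,000xg for 90 min, supernatant protein was measured by TMTpro 16plex LC-MS/MS with channel sums equalised.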

Amino acid sequences for entries named in this document (tags omitted). A change or cut given only in a name is not applied to a line headed by its entry.
UniProt P52895: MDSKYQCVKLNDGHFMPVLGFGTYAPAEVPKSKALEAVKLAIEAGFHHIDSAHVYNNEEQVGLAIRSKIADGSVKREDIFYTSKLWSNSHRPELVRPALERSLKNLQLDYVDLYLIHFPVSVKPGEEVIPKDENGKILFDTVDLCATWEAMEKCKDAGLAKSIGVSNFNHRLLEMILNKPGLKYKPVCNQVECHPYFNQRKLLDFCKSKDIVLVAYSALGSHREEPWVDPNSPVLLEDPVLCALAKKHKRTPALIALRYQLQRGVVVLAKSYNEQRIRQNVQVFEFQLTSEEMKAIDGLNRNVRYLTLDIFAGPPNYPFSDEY
UniProt O00154: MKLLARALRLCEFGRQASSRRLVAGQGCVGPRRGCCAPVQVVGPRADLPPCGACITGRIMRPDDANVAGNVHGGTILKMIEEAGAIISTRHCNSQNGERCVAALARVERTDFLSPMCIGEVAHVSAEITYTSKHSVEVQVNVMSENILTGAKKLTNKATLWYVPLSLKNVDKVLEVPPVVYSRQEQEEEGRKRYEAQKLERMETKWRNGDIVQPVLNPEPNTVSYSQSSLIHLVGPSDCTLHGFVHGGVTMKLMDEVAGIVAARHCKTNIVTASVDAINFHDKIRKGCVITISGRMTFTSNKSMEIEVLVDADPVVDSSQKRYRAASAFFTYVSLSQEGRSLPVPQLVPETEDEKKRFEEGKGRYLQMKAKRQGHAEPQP
UniProt P30520: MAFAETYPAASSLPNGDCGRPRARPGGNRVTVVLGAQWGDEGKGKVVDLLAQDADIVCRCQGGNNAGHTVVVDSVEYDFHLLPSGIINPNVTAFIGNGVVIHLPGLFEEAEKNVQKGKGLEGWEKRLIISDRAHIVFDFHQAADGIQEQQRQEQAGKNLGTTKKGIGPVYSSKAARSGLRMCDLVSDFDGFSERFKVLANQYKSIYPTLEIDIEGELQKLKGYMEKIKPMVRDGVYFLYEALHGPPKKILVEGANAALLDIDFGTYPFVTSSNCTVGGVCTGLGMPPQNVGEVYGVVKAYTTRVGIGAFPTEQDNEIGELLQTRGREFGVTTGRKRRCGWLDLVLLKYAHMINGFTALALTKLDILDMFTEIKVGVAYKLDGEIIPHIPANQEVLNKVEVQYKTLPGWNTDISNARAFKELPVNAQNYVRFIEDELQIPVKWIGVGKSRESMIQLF
UniProt Q9NZ32, whole entry, looked up: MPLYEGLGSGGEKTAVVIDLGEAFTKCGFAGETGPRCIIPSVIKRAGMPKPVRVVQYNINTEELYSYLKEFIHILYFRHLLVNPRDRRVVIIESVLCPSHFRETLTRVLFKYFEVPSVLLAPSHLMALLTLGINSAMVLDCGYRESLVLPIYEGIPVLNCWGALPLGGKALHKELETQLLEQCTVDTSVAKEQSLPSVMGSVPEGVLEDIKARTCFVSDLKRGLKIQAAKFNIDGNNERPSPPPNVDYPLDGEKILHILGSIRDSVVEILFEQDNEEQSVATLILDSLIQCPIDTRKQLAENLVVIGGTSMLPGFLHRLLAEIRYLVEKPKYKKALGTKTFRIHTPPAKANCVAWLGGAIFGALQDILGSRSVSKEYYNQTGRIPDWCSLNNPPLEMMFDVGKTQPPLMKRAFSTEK
UniProt O43707, whole entry, looked up: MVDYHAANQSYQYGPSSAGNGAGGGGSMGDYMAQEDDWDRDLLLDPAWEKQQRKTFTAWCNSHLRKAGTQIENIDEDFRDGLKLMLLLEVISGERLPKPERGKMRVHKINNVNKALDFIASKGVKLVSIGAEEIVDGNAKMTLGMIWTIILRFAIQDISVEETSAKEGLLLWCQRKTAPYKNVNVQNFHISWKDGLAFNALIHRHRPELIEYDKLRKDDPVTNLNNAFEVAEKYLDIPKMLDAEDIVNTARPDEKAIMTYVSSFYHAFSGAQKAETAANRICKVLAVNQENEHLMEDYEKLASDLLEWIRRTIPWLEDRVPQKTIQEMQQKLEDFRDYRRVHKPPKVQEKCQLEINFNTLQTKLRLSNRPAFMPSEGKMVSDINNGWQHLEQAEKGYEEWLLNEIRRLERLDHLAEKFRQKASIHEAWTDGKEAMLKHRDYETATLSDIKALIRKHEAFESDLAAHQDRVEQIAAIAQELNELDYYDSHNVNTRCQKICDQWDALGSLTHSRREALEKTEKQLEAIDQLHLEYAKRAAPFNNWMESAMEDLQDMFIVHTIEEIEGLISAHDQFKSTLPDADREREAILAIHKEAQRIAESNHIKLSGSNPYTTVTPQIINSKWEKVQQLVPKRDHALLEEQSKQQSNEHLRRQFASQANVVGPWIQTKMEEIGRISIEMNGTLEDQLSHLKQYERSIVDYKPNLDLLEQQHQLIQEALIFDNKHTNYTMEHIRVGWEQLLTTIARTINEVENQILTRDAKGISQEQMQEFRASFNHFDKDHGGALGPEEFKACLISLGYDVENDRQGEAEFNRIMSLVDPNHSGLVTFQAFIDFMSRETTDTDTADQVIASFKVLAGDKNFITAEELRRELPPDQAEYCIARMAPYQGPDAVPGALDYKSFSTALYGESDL
UniProt P00813: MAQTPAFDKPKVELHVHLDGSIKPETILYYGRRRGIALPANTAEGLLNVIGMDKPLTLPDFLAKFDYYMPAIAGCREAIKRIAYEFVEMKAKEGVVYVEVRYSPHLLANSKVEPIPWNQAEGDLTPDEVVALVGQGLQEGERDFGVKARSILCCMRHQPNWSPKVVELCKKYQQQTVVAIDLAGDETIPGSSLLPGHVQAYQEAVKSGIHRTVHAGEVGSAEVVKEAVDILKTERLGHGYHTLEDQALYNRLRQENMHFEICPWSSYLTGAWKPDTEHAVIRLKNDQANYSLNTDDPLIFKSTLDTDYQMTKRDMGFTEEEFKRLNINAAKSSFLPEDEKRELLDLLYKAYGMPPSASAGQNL
UniProt Q9Y3D8, whole entry, looked up: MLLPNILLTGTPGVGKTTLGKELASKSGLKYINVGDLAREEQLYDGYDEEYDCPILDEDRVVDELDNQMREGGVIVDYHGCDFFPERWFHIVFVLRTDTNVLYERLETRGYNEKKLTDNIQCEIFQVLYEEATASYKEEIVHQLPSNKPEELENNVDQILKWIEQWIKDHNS
UniProt P30566: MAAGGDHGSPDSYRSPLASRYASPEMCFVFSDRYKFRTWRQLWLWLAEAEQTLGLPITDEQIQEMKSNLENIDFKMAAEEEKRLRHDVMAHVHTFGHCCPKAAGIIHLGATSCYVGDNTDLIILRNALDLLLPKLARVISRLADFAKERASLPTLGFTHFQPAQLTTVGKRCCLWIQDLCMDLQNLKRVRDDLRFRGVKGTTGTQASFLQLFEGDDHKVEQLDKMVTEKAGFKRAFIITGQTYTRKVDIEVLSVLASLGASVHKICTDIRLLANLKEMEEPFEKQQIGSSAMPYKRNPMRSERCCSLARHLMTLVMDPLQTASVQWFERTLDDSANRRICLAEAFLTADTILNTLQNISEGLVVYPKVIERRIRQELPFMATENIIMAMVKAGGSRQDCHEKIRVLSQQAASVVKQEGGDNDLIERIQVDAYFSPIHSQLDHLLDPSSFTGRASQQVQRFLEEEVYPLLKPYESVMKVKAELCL
UniProt P00568: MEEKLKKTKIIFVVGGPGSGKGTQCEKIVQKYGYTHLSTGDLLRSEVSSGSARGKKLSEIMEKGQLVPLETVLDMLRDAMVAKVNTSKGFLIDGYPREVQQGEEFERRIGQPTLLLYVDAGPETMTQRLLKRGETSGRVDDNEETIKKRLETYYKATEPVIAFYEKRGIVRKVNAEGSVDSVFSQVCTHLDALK
UniProt O95433, whole entry, looked up: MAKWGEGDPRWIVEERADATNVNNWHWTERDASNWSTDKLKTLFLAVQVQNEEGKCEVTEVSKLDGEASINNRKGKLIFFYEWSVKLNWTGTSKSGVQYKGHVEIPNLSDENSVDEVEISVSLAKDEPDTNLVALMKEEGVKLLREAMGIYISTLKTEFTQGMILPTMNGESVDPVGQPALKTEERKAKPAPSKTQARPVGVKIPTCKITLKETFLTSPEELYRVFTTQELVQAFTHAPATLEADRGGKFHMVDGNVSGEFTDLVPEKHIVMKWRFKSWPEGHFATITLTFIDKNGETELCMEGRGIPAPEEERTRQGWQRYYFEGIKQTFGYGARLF
UniProt O95573: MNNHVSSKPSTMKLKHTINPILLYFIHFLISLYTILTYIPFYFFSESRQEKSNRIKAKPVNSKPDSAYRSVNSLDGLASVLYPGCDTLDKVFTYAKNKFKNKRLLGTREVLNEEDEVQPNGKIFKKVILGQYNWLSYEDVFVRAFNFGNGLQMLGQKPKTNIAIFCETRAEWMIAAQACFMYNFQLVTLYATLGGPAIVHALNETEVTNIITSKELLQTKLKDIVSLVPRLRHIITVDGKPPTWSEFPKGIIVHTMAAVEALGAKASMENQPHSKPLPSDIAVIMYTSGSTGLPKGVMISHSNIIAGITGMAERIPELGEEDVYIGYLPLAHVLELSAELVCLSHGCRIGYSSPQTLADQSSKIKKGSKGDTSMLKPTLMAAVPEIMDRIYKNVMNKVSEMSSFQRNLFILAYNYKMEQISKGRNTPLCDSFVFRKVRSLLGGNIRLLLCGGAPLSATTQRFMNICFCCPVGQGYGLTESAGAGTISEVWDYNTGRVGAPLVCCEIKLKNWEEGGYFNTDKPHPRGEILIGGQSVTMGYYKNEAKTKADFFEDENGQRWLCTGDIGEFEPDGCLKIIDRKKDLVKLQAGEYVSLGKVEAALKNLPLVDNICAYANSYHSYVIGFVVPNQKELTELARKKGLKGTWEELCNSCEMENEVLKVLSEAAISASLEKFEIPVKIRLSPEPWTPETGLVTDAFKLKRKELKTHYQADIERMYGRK
UniProt P07311: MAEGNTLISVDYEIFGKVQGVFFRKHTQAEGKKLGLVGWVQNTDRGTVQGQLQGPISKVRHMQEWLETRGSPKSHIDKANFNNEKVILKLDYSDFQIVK
UniProt Q9BQI0: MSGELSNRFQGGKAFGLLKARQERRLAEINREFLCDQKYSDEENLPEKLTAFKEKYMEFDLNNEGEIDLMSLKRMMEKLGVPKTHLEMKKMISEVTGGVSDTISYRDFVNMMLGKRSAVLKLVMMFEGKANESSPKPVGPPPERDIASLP
UniProt Q13155: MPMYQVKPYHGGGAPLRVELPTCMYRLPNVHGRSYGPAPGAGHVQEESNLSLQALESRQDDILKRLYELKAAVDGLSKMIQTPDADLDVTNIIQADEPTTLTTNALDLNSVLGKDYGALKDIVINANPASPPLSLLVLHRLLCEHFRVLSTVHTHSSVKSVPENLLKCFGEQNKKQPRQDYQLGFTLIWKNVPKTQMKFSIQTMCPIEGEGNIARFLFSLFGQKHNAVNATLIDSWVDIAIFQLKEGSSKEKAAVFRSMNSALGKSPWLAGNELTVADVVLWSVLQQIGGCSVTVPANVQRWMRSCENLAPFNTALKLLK

pictilisib = compound: CS(=O)(=O)N1CCN(Cc2cc3nc(-c4cccc5[nH]ncc45)nc(N4CCOCC4)c3s2)CC1 [pictilisib]
In short: as §1

crizotinib = compound: C[C@@H](Oc1cc(-c2cnn(C3CCNCC3)c2)cnc1N)c1c(Cl)ccc(F)c1Cl [crizotinib]
In short: as §1

[1] = compound: C[C@H](C1=CC=C(C=C1)C(=O)NC2=C3C=CNC3=NC=C2)N
In short: as §1

duvelisib = compound: C[C@H](Nc1ncnc2nc[nH]c12)c1cc2cccc(Cl)c2c(=O)n1-c1ccccc1 [duvelisib]
In short: as §1

gandotinib = compound: Cc1cc(Nc2cc(CN3CCOCC3)c3nc(C)c(Cc4ccc(Cl)cc4F)n3n2)n[nH]1 [gandotinib]
In short: as §1

tozasertib = compound: Cc1cc(Nc2cc(N3CCN(C)CC3)nc(Sc3ccc(NC(=O)C4CC4)cc3)n2)n[nH]1 [tozasertib]
In short: as §1

doramapimod = compound: Cc1ccc(-n2nc(C(C)(C)C)cc2NC(=O)Nc2ccc(OCCN3CCOCC3)c3ccccc23)cc1 [doramapimod]
In short: as §1

bafetinib = compound: Cc1ccc(NC(=O)c2ccc(CN3CC[C@H](N(C)C)C3)c(C(F)(F)F)c2)cc1Nc1nccc(-c2cncnc2)n1 [bafetinib]
In short: as §1

[2] = compound: Cc1cccc(CC(=O)N2CCc3c2ccc(-c2cn(C)c4ncnc(N)c24)c3F)n1
In short: as §1

nilotinib = compound: Cc1cn(-c2cc(NC(=O)c3ccc(C)c(Nc4nccc(-c5cccnc5)n4)c3)cc(C(F)(F)F)c2)cn1 [nilotinib]
In short: as §1

[3] = compound: Cc1nc(Nc2n[nH]c3c2CN(C(=O)N[C@H](CN(C)C)c2ccccc2)C3(C)C)c2sccc2n1
In short: as §1

dasatinib = compound: Cc1nc(Nc2ncc(C(=O)Nc3c(C)cccc3Cl)s2)cc(N2CCN(CCO)CC2)n1 [dasatinib]
In short: as §1

[4] = compound: Cc1ncc(-c2ccnc(Nc3ccc(S(C)(=O)=O)cc3)n2)n1C(C)C
In short: as §1

[5] = compound: Cn1cc(-c2ccc3c(c2)CCN3C(=O)Cc2cccc(C(F)(F)F)c2)c2c(N)ncnc21
In short: as §1

quisinostat = compound: Cn1cc(CNCC2CCN(c3ncc(C(=O)NO)cn3)CC2)c2ccccc21 [quisinostat]
In short: as §1

tipifarnib = compound: Cn1cncc1[C@@](N)(c1ccc(Cl)cc1)c1ccc2c(c1)c(-c1cccc(Cl)c1)cc(=O)n2C [tipifarnib]
In short: as §1

[6] = compound: NC(=O)Nc1cc(-c2cccc(F)c2)sc1C(=O)N[C@H]1CCCNC1
In short: as §1

[7] = compound: NC(=O)c1cnc(N[C@@H]2CCCC[C@@H]2N)nc1Nc1cccc(-n2nccn2)c1
In short: as §1

[8] = compound: NC1(c2ccc(-c3nc4ccn5c(=O)[nH]nc5c4cc3-c3ccccc3)cc2)CCC1
In short: as §1

Measured: log2 fold change

AKR1C2 (UniProt P52895)
inactive: lapatinib -0.012 | pictilisib -0.022 | crizotinib -0.059 | [1] -0.201 | duvelisib 0.049 | tozasertib 0.014 | doramapimod -0.011 | bafetinib 0.108 | [2] 0.18 | nilotinib 0.02 | [3] -0.031 | dasatinib -0.006 | [4] -0.009 | [5] -0.045 | quisinostat -0.043 | tipifarnib 0 | [6] 0.019 | [7] -0.039 | [8] -0.034
active: gandotinib 0.276

ACOT7 isoform 7 (UniProt O00154)
inactive: lapatinib -0.019 | pictilisib -0.028 | crizotinib 0.017 | [1] -0.022 | duvelisib 0.005 | gandotinib 0.01 | tozasertib -0.031 | doramapimod -0.003 | bafetinib 0.006 | [2] 0.007 | nilotinib 0.01 | [3] 0.009 | dasatinib 0.019 | [4] -0.005 | [5] -0.005 | quisinostat 0.077 | tipifarnib -0.003 | [6] -0.032 | [7] 0.004 | [8] -0.007

ADSS2 (UniProt P30520)
inactive: lapatinib -0.018 | pictilisib -0.033 | crizotinib -0.012 | [1] -0.076 | duvelisib 0.045 | gandotinib 0.038 | tozasertib -0.006 | doramapimod 0.018 | bafetinib -0.029 | [2] 0.014 | nilotinib 0.017 | [3] 0 | dasatinib 0.041 | [4] 0.023 | [5] -0.021 | quisinostat -0.021 | tipifarnib -0.01 | [6] -0.016 | [7] -0.005 | [8] -0.013

ACTR10 (UniProt Q9NZ32)
inactive: lapatinib 0.035 | pictilisib -0.018 | crizotinib -0.057 | [1] -0.001 | duvelisib 0.004 | gandotinib 0.02 | tozasertib 0.012 | doramapimod 0.062 | bafetinib 0.034 | [2] 0.039 | nilotinib -0.02 | [3] -0.005 | dasatinib 0.057 | [4] 0.001 | [5] -0.016 | quisinostat 0.043 | tipifarnib 0.019 | [6] -0.082 | [7] 0.002 | [8] 0.006

ACTN4 (UniProt O43707)
inactive: lapatinib -0.018 | pictilisib -0.002 | crizotinib 0.018 | [1] 0.009 | duvelisib 0.005 | gandotinib 0.02 | tozasertib -0.018 | doramapimod -0.017 | bafetinib 0.019 | [2] -0.028 | nilotinib 0.002 | [3] -0.008 | dasatinib 0.029 | [4] 0.011 | [5] -0.018 | quisinostat -0.018 | tipifarnib 0.004 | [6] -0.02 | [7] -0.039 | [8] 0.01

ACTB, A0A2R8Y793
inactive: lapatinib -0.012 | pictilisib -0.012 | crizotinib -0.011 | [1] 0.009 | duvelisib -0.013 | gandotinib -0.009 | tozasertib -0.023 | doramapimod -0.023 | bafetinib 0.015 | [2] -0.032 | nilotinib 0.031 | [3] -0.012 | dasatinib 0.004 | [4] 0.014 | [5] -0.008 | quisinostat -0.012 | tipifarnib 0.004 | [6] 0.056 | [7] 0.005 | [8] -0.01

ADA (UniProt P00813)
inactive: lapatinib -0.014 | pictilisib 0.003 | crizotinib -0.051 | [1] -0.107 | duvelisib -0.004 | gandotinib 0.107 | tozasertib -0.035 | doramapimod 0.027 | bafetinib 0.016 | [2] 0.08 | nilotinib 0.007 | [3] -0.045 | dasatinib 0.151 | [4] 0.113 | [5] 0.03 | quisinostat -0.101 | tipifarnib -0.037 | [6] -0.012 | [7] 0 | [8] 0.005

AK6 (UniProt Q9Y3D8)
inactive: lapatinib -0.015 | pictilisib -0.063 | crizotinib -0.021 | [1] 0.047 | duvelisib -0.004 | gandotinib -0.162 | tozasertib 0.053 | doramapimod 0.038 | bafetinib 0.025 | [2] -0.054 | nilotinib -0.013 | [3] 0.032 | dasatinib -0.028 | [4] -0.016 | [5] 0.04 | quisinostat 0.019 | tipifarnib -0.002 | [6] 0.072 | [7] -0.038 | [8] 0.1

ADSL (UniProt P30566)
inactive: lapatinib 0.006 | pictilisib 0 | crizotinib 0.054 | [1] 0.073 | duvelisib 0.007 | gandotinib -0.081 | tozasertib -0.026 | doramapimod -0.011 | bafetinib 0.031 | [2] -0.1 | nilotinib -0.01 | [3] -0.007 | dasatinib 0.005 | [4] 0.013 | [5] -0.029 | quisinostat 0.06 | tipifarnib 0.003 | [6] -0.019 | [7] -0.006 | [8] 0.008

AK1 (UniProt P00568)
active: [1] 0.285
inactive: lapatinib -0.027 | pictilisib -0.011 | crizotinib 0.091 | duvelisib -0.001 | gandotinib -0.118 | tozasertib 0.023 | doramapimod -0.037 | bafetinib 0.06 | [2] -0.189 | nilotinib 0.023 | [3] 0.008 | dasatinib -0.038 | [4] 0.015 | [5] 0.011 | quisinostat 0.118 | tipifarnib 0.056 | [6] 0.004 | [7] 0.003 | [8] 0.009

AHSA1 (UniProt O95433)
inactive: lapatinib 0.006 | pictilisib 0.027 | crizotinib 0.011 | [1] 0.008 | duvelisib 0.014 | gandotinib -0.018 | tozasertib -0.039 | doramapimod -0.014 | bafetinib 0.04 | [2] -0.039 | nilotinib 0.006 | [3] -0.026 | dasatinib 0.012 | [4] 0.01 | [5] -0.021 | quisinostat -0.006 | tipifarnib 0.001 | [6] 0.009 | [7] 0.01 | [8] -0.03

ACSL3 (UniProt O95573)
inactive: lapatinib 0.026 | pictilisib 0.013 | crizotinib -0.03 | [1] -0.049 | duvelisib -0.01 | gandotinib -0.078 | tozasertib 0.082 | doramapimod 0.008 | bafetinib 0.008 | [2] 0.051 | nilotinib -0.006 | [3] -0.016 | dasatinib -0.034 | [4] -0.011 | [5] -0.017 | quisinostat -0.002 | tipifarnib -0.018 | [6] 0.015 | [7] -0.052 | [8] 0.027

AKAP9 (UniProt Q99996)
inactive: lapatinib -0.127 | pictilisib -0.057 | crizotinib -0.009 | [1] 0.028 | duvelisib -0.016 | gandotinib -0.054 | tozasertib -0.005 | doramapimod 0.021 | bafetinib -0.027 | [2] 0.106 | nilotinib 0.011 | [3] -0.039 | dasatinib -0.038 | [4] 0.026 | [5] -0.02 | quisinostat -0.007 | tipifarnib -0.031 | [6] -0.016 | [7] 0 | [8] 0.006

ACYP1 (UniProt P07311)
inactive: lapatinib -0.001 | pictilisib -0.044 | crizotinib 0.024 | duvelisib 0.005 | gandotinib -0.051 | tozasertib 0.016 | doramapimod 0.009 | bafetinib 0.005 | [2] -0.091 | nilotinib -0.014 | [3] 0.019 | dasatinib 0.022 | [4] -0.028 | [5] 0.014 | quisinostat 0.024 | tipifarnib 0.019 | [6] -0.029 | [7] -0.013 | [8] 0.039
active: [1] 0.236

AIF1L (UniProt Q9BQI0)
inactive: lapatinib 0.047 | pictilisib 0.046 | crizotinib 0.039 | [1] 0.069 | duvelisib -0.075 | gandotinib -0.171 | tozasertib -0.105 | doramapimod -0.037 | bafetinib -0.122 | [2] 0.101 | nilotinib -0.263 | [3] -0.176 | dasatinib 0.118 | [4] 0.142 | [5] -0.058 | quisinostat -0.075 | tipifarnib 0.123 | [6] -0.112 | [7] -0.012 | [8] 0.016

AIMP2 (UniProt Q13155)
inactive: lapatinib -0.006 | pictilisib 0.015 | crizotinib -0.047 | [1] 0.05 | duvelisib -0.018 | gandotinib -0.12 | tozasertib 0.041 | doramapimod 0.029 | bafetinib -0.03 | [2] -0.032 | nilotinib 0.015 | [3] -0.015 | dasatinib -0.048 | [4] -0.002 | [5] -0.007 | quisinostat -0.009 | tipifarnib -0.003 | [6] 0.045 | [7] -0.012 | [8] -0.007

Quoted at random: two records from the list, in no set order.
AIMP2 (UniProt Q13155)
inactive: lapatinib -0.006 | pictilisib 0.015 | crizotinib -0.047 | [1] 0.05 | duvelisib -0.018 | gandotinib -0.12 | tozasertib 0.041 | doramapimod 0.029 | bafetinib -0.03 | [2] -0.032 | nilotinib 0.015 | [3] -0.015 | dasatinib -0.048 | [4] -0.002 | [5] -0.007 | quisinostat -0.009 | tipifarnib -0.003 | [6] 0.045 | [7] -0.012 | [8] -0.007

AIF1L (UniProt Q9BQI0)
inactive: lapatinib 0.047 | pictilisib 0.046 | crizotinib 0.039 | [1] 0.069 | duvelisib -0.075 | gandotinib -0.171 | tozasertib -0.105 | doramapimod -0.037 | bafetinib -0.122 | [2] 0.101 | nilotinib -0.263 | [3] -0.176 | dasatinib 0.118 | [4] 0.142 | [5] -0.058 | quisinostat -0.075 | tipifarnib 0.123 | [6] -0.112 | [7] -0.012 | [8] 0.016
